{"source": "the supplement of paper PMC12009310", "note": "Structures can show the parent of a compound that is named as a salt. ± gives the standard deviation of the averaged measurements. Some of the results follow. Plates or batches differ in their baseline, so values are only roughly comparable.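 The cells are a mouse kidney inner medullary collecting duct line, silenced either for the ciliary gene Rpgrip1l or with a non-targeting control siRNA.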", "data": [{"system": "mIMCD3", "assay": "robust z score of cell number vs plate controls; higher = more cells (less cytotoxic)", "settings": "10 µM; 48 h; siRNA: siRpgrip1l", "values": [{"smiles": "OC(CN1CCN(c2cccc(Cl)c2)CC1)C(c1ccccc1)c1ccccc1", "note": "(centres undefined)", "robust z score of cell number": "-51.9 ± 39"}, {"smiles": "C[C@H](NC[C@H](O)CP(=O)(O)CC1CCCCC1)c1ccc(Cl)c(Cl)c1", "robust z score of cell number": "-11.3 ± 5.7"}, {"smiles": "O=C(O)Cc1ccc(OCCNC[C@H](O)c2ccccc2)cc1", "note": "[ZD 2079 hydrochloride]", "robust z score of cell number": "-0.642 ± 0.053"}, {"smiles": "COC(=O)C1=C(C)NC(C)=C([N+](=O)[O-])[C@H]1c1ccccc1C(F)(F)F", "robust z score of cell number": "-39.8 ± 44"}, {"smiles": "COc1ccc2[nH]c(C(=O)c3ccccc3)cc2c1", "robust z score of cell number": "-178 ± 200"}, {"smiles": "COC(=O)/C=C/c1cc(O)ccc1O", "note": "[Methyl 2,5-dihydroxycinnamate]", "robust z score of cell number": "-85.1 ± 60"}, {"smiles": "CC(C)NCC(O)COc1ccc(CCOCC2CC2)cc1", "note": "(centres undefined) [Betaxolol hydrochloride]", "robust z score of cell number": "-5.445 ± 0.053"}, {"smiles": "Cc1cc(I)ccc1Nc1c(C(=O)NOCC2CC2)cc(F)c(F)c1F", "robust z score of cell number": "-32.1 ± 10"}, {"smiles": "CC#C[C@]1(O)CC[C@H]2[C@@H]3CCC4=CC(=O)CCC4=C3[C@@H](c3ccc(N(C)C)cc3)C[C@@]21C", "note": "[Mifepristone]", "robust z score of cell number": "-135 ± 140"}, {"smiles": "COc1ccc2[nH]c([S+]([O-])Cc3ncc(C)c(OC)c3C)nc2c1", "note": "(centres undefined) [Omeprazole]", "robust z score of cell number": "-8.45 ± 5"}, {"smiles": "O=C(c1ccc(OCCN2CCCCC2)cc1)c1c(-c2ccc(O)cc2)sc2cc(O)ccc12", "note": "[Raloxifene hydrochloride]", "robust z score of cell number": "-29.9 ± 15"}, {"smiles": "COc1cc2c(cc1C(F)(F)F)N(C(=O)Nc1cc(F)cc(-c3cccnc3)c1)CC2", "robust z score of cell number": "-307 ± 220"}, {"smiles": "CNCCC(Oc1ccc(C(F)(F)F)cc1)c1ccccc1", "note": "(centres undefined) [Fluoxetine hydrochloride]", "robust z score of cell number": "-27.7 ± 3.7"}, {"smiles": "N[C@@H](Cc1cc(-c2ccc(Cl)cc2Cl)cc(CP(=O)(O)O)c1O)C(=O)O", "robust z score of cell number": "-37.2 ± 41"}]}]}
